Binding data for five molecules are collected here from article PMC9927405.

The target of experiment [1] is T1, Neospora caninum mitochondrial glutaredoxin 5, HA-tagged (NcGRX5-HA) (Neospora caninum) (UniProt F0VJR9).
T1 sequence: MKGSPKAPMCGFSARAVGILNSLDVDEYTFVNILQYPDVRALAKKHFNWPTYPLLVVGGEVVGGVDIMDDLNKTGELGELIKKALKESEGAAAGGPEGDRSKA
Put plainly: co-IP; NcGRX5-HA precipitated with HA magnetic beads from doubly tagged parasites lysed in nondenaturing lysis buffer with ultrasonication; 2 h at 4 °C, five washes; blots with anti-FLAG, anti-HA and anti-actin.

The target of experiment [2] is Cysteine desulfurase ISCS of N. caninum, FLAG-tagged (ISCS-FLAG) (Neospora caninum). Put plainly: co-IP; FLAG-tagged ISCS or ISCU1 precipitated with FLAG magnetic beads from doubly tagged parasites lysed in nondenaturing lysis buffer with ultrasonication; 2 h at 4 °C, five washes; blots with anti-FLAG, anti-HA and anti-actin.
In experiment [3] the target is Scaffold protein ISCU1 of N. caninum, FLAG-tagged (ISCU1-FLAG) (Neospora caninum). The experiment is described as above.

No constants are given. Whether binding was seen depends on the method and setting. Binding seen in cells or lysates may run through a third protein. A result given as binding can be weak or reduced; the word gives no strength. Tags and fused reporters may be left off the sequences shown.

For the molecule “Cysteine desulfurase ISCS of N. caninum, FLAG-tagged (ISCS-FLAG) (Neospora caninum)”, the binding entry in experiment [1] is listed as “binds”.

On to “HSP70 SSQ1 of N. caninum, FLAG-tagged (SSQ1-FLAG) (Neospora caninum)”, for which the binding result in experiment [1] is recorded as “no binding”.

Take “Scaffold protein ISCU1 of N. caninum, FLAG-tagged (ISCU1-FLAG) (Neospora caninum)”: the binding entry in experiment [1] is reported as “binds”.

Consider “Scaffold protein ISCU2 of N. caninum, FLAG-tagged (ISCU2-FLAG) (Neospora caninum)”, for which the binding result in experiment [1] is on record as “no binding”.

B1: Neospora caninum mitochondrial glutaredoxin 5, HA-tagged (NcGRX5-HA) (protein, UniProt F0VJR9 1-103)
chain: T1 sequence
For the molecule B1, the binding result in experiment [2] and in experiment [3] was “binds” each time.
